Results taken from PubChem BioAssay AID590 (National Center for Advancing Translational Sciences (NCATS), 2007).
In all, about 59,000 compounds went through this assay and about 6,500 (11%) were called active. The inconclusive results got no clear call from the source; some entries with a clear call stand among them for comparison. No stated cut-off is given here; in the data, active means max dye-equivalent concentration above about 10 nM; inconclusive means mostly about 1.1 nM to 9.6 nM; inactive means weaker than that.

test: qHTS Assay for Spectroscopic Profiling in A350 Spectral Region; conditions: Compound autofluorescence, 340/450 nm, Alexa 350 dye-equivalents; active compounds read high

Row | Structure (SMILES) | max dye-equivalent concentration
1 | Cc1ccc(Cn2nnc3c(=O)n(CC(=O)NCC4CCCO4)cnc32)cc1 (stereo not drawn) | inconclusive: 2 nM
2 | COC(=O)c1ccc(=O)n(-c2ccc(OC)cc2)c1 | inconclusive: 4.2 nM
3 | Cc1cc(NCCCCO)n2c(nc3ccccc32)c1C#N | active: 2700 nM
4 | Cc1cc(C)n(-c2nc3ccccc3c(=O)n2OCC(=O)OCc2ccccc2)n1 | inconclusive: 4.5 nM
5 | c1cncc(-c2nc(Oc3ccc(-c4nnco4)cc3)c3c4c(sc3n2)CCCC4)c1 | active: 16 nM
6 | Cc1cc(C)nc(NC2=NCC(=O)N2c2cccc(Cl)c2)n1 | inconclusive: 1.5 nM
7 | COCC(=O)N1CCC2(CCCN(c3ccccc3)C2)CC1 | inactive
8 | Nc1nnc(-c2ccncc2)s1 | inconclusive: 2.9 nM
9 | Cc1cc(C)c2oc(=O)cc(CN3CCOCC3)c2c1 | inconclusive: 1.2 nM
10 | COCCn1c(=O)c(-c2cccc(C#N)c2)nc2cnc(OCc3ccccc3)nc21 | inconclusive: 6.1 nM
11 | CCOP(=O)(c1ccc(N(C)C)cc1)C(O)c1ccc(Cl)cc1 (stereo not drawn) | inconclusive: 3.3 nM
12 | CCCCOC(=O)Nc1nnc(CCOCC)s1 | inconclusive: 8.5 nM
13 | COc1ccc(-n2nc(C(=O)NCC(=O)N3CCN(c4ccccn4)CC3)c3ccccc3c2=O)cc1 | inconclusive: 1.2 nM
14 | Cc1cc(S(=O)(=O)Nc2ccccc2C(=O)O)ccc1Cl | inactive
15 | Cc1ccc(Cn2c(-c3nonc3N)nc3ccccc32)cc1 | inactive
16 | Cc1ccc(C(CC(=O)N2CCCC2)c2ccccc2)c(O)c1C (stereo not drawn) | inconclusive: 1.2 nM
17 | COc1ccccc1-c1nc(C#N)c(N2CCc3ccccc3C2)o1 | active: 49 nM
18 | CCC1C2CN(C(C)=O)CC=C2C(C#N)=C(N)C1(C#N)C#N (stereo not drawn) | active: 38 nM
19 | COc1ccc2cc(CN(Cc3ccco3)C(c3nnnn3C3CCCCC3)C(C)C)c(=O)[nH]c2c1 (stereo not drawn) | inconclusive: 3.9 nM
20 | CC(C)c1nc2oc3c(=O)[nH]cnc3c2c2c1CCC2 | inconclusive: 1.4 nM

Row | Structure (SMILES) | max dye-equivalent concentration
21 | O=C(Cn1cnc2c(cnn2-c2ccc(Cl)cc2)c1=O)NCC1CCCO1 (stereo not drawn) | inactive
22 | CCN1CCN(C(=O)CN(c2ccc(C)cc2)S(C)(=O)=O)CC1 | inconclusive: 1.3 nM
23 | CCOC(=O)c1cc2cc(F)ccc2nc1C | inactive
24 | COc1ccc(NC(=O)NCCN2CCc3ccccc3C2)cc1 | inconclusive: 9.2 nM
25 | CCOC(=O)COc1cc(=O)n(CC)c2ccccc12 | inactive
26 | O=C(Nc1cnn(Cc2ccccc2)c1)c1cc2nc(-c3ccco3)cc(C(F)(F)F)n2n1 | inconclusive: 5.6 nM
27 | CCOC(=O)C1CCCN(CC(=O)NC2=Nc3ccccc3N=C(C)C2c2ccccc2)C1 (stereo not drawn) | inconclusive: 1.2 nM
28 | CC(C)Cn1c(Br)nc2c1c(=O)n(CCC#N)c(=O)n2C | inactive
29 | COc1ccc(-n2c(=O)c(-c3cccs3)nc3cncnc32)cc1 | inactive
30 | O=S(=O)(c1cccc(S(=O)(=O)N2CCC(N3CCCCC3)CC2)c1)N1CCOCC1 | inconclusive: 4.2 nM
31 | CS(=O)(=O)N(Cc1nnc(-c2cccs2)o1)c1ccc(Cl)cc1F | inconclusive: 1.8 nM
32 | COc1ccc(-c2cc(C(F)(F)F)nc(SCCC(=O)N3CCN4CCCC4C3)n2)cc1 (stereo not drawn) | inconclusive: 9 nM
33 | CCOc1ccc(S(=O)(=O)n2nnc3ccccc32)cc1C | inactive
34 | Cn1c(=O)c2c(n(Cc3ccccc3)c1=O)NC(=O)C2CC(=O)N1CCc2ccccc2C1 (stereo not drawn) | inconclusive: 1.4 nM
35 | Cn1c(=O)[nH]c(=O)c2c1nc(N1CCCCCC1)n2CCCSc1nc2ccccc2o1 | inactive
36 | Cc1c(=O)n(OCc2ccccn2)c2ccccc2[n+]1[O-] | active: 35 nM
37 | O=C1CC(c2cccc(Cl)c2)Cc2nc(N3CCN(c4ccccc4)CC3)ncc21 (stereo not drawn) | inconclusive: 10 nM
38 | O=C(Nc1nc2c(ccc3ccccc32)s1)c1ccco1 | inconclusive: 7.4 nM
39 | C[C@H](O)Cn1cnc2c1c(=O)n(C)c(=O)n2C | inconclusive: 3.3 nM
40 | O=C(Nc1nncs1)C1COc2ccccc2O1 (stereo not drawn) | inconclusive: 2.6 nM

Row | Structure (SMILES) | max dye-equivalent concentration
41 | CCN(CC)S(=O)(=O)c1ccc(C(=O)Nc2ncn(Cc3ccccc3)n2)cc1 | inconclusive: 1.8 nM
42 | CC1(C)CC2CC(C)(CN2C(=O)CN2C(=O)c3ccccc3C2=O)C1 (stereo not drawn) | inconclusive: 1.7 nM
43 | Cc1ccc(S(=O)(=O)NCCCOC(=O)Nc2ccncc2)cc1 | inactive
44 | CCOCCCNC(=O)C1CCN(C(=O)N(C)C)CC1 | inconclusive: 2.2 nM
45 | CN(CC(=O)Nc1cccnc1)S(=O)(=O)c1cc(Cl)ccc1Cl | inconclusive: 1.3 nM
46 | Cc1ccccc1N(C)S(=O)(=O)c1ccc2[nH]cc(C(=O)NCC3CCCO3)c(=O)c2c1 (stereo not drawn) | inconclusive: 4.9 nM
47 | OCCOCCn1c2ccccc2c2ccccc21 | active: 320 nM
48 | O=C(Nc1ccncc1)C1COc2ccccc2O1 (stereo not drawn) | inactive
49 | Cc1nnc(SCC(=O)Nc2ccc(N3CCOCC3)cc2)o1 | inconclusive: 3.9 nM
50 | O=C(O)CCC/C=C\C[C@H]1[C@@H](/C=C\[C@@H](O)C2Cc3ccccc3C2)[C@H](F)C[C@H]1O | inconclusive: 2.2 nM
51 | CCN1CC2CCCC3(C1)C(=O)NC1(CCCCC1)N=C23 (stereo not drawn) | inconclusive: 2 nM
52 | COc1ccc(CCNC(=O)CN(C2CCCCC2)S(C)(=O)=O)cc1OC | inconclusive: 5.2 nM
53 | CCc1nnc(NCC(=O)N2CCc3ccccc32)s1 | inconclusive: 3 nM
54 | N#Cc1cc2c(=O)n3ccccc3nc2n(Cc2cccnc2)c1=O | active: 17000 nM
55 | Cc1cccc(CCNC(=O)C2CCCN(S(=O)(=O)c3cccc4nsnc34)C2)c1 (stereo not drawn) | inactive
56 | O=CNc1ncn[nH]1 | inactive
57 | CCCc1nc2ccccc2c(=O)n1NC(=O)c1c(O)c2cccc3c2n(c1=O)CCC3 | inconclusive: 7.4 nM
58 | C[C@@H](CCC[C@@H]1SC[C@H]2NC(=O)N[C@H]12)C(=O)O | inconclusive: 7.4 nM

As entered above:
N#Cc1cc2c(=O)n3ccccc3nc2n(Cc2cccnc2)c1=O – max dye-equivalent concentration: active: 17000 nM
CCOCCCNC(=O)C1CCN(C(=O)N(C)C)CC1 – max dye-equivalent concentration: inconclusive: 2.2 nM
CCc1nnc(NCC(=O)N2CCc3ccccc32)s1 – max dye-equivalent concentration: inconclusive: 3 nM
